Measured data: PubChem BioAssay AID504744 (Drosophila RNAi Screening Center, 2011)
Test: 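Uncover factors, including feedback loops, that control dAkt activation in fly cells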 (primary screen). System: Drosophila Kc167 cells. Reagents: long dsRNA against Drosophila genes, 250 ng dsRNA per well of a 384-well plate. Duration: 3 days of knock-down, then overnight serum-free starvation before stimulation. Treatment: bovine insulin at 387 nM for 10 minutes after 12 h without serum. Measured: 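In-cell antibody fluorescence for phospho-dAkt in each well over DNA-dye signal, with log2 residuals expressed as z-scores adjusted for cell count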. Call rule: 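Under insulin, a gene counts as a hit if the average z-score of two replicates lies above 2.5 or below -2.5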.
The screen tested about 23,000 reagents; shown is a random part of those with a known target gene and a result. Over the whole deposit, 98 (0.43%) were called active. 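Only hit calls are given; the phospho-dAkt signals, z-scores and hit direction were not deposited.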 A plus sign joins genes that one reagent is predicted to hit.

CG11367 [DRSC22434] showed inactive.
Depletion of Uch [DRSC00797] gave: inactive.
After knock-down of CG11037 [DRSC11631] the results were inactive.
opa [DRSC12384] showed inactive.
After knock-down of opa [DRSC22563], the screen gave inactive.
With knock-down of Cpr92A [DRSC16000] the results were inactive.
CG14321 [DRSC14800] gave inactive.
Silencing of CG17192 [DRSC15186] gave: inactive.
Against eIF4E6 [DRSC14853] the deposit lists inactive.
Knock-down of Buffy [DRSC05957] gave: inactive.
dpr20 [DRSC08265] scored inactive.
After knock-down of Fatp2 [DRSC03971], the record shows inactive.
For Fatp2 [DRSC04178] the deposit lists inactive.
With knock-down of Fatp2 [DRSC04330], the screen gave inactive.
Against Calr [DRSC16614] the deposit lists inactive.
Against CG34301 [DRSC12704] the deposit lists inactive.
Silencing of CG10462 [DRSC02058] came out at: inactive.
lwr [DRSC00828] showed inactive.
After knock-down of CG40583 (retired record) [DRSC20938], the screen gave inactive.
CG10311 [DRSC14228] gave inactive.
CG15386 + CG42371 [DRSC00400] showed inactive.
With knock-down of CG1889 + CG43386 [DRSC17979], the screen gave inactive.
With knock-down of CG33270 [DRSC10584], the record shows inactive.
Knock-down of ast [DRSC00803] came out at: inactive.
Depletion of Spn [DRSC07986] gave: inactive.
Spn [DRSC08490] gave inactive.
Spn [DRSC08491] scored inactive.
After knock-down of mTTF [DRSC01909], the screen gave inactive.
After knock-down of Cyp4c3 [DRSC16631], the record shows inactive.
Dus3 [DRSC02059] gave inactive.
For ApepP [DRSC01866] the deposit lists inactive.
CG32606 (retired record) [DRSC19001] scored inactive.
Depletion of CG32606 (retired record) [DRSC19371] resulted in: inactive.
Against CG32606 (retired record) [DRSC19372], the entry reads inactive.
CG32606 (retired record) [DRSC19373] gave inactive.
With knock-down of sesB [DRSC20371], the screen gave inactive.
Knock-down of Gen [DRSC09679] came out at: inactive.
For CG31676 [DRSC02387], the values are inactive.
CG11741 [DRSC14367] showed inactive.
Against JhI-21 [DRSC02161], the values are inactive.
CG7275 [DRSC10796] scored inactive.
After knock-down of CG2059 [DRSC18203], the record shows inactive.
Against eIF3f2 [DRSC04903] the deposit lists inactive.
With knock-down of CG5359 [DRSC15780], the screen gave inactive.
Knock-down of Srp54 [DRSC03442] came out at: inactive.
With knock-down of Nepl8 [DRSC02759] the results were inactive.
After knock-down of CG15247 [DRSC17976], the record shows inactive.
Crz [DRSC16615] showed inactive.
Acp36DE [DRSC01860] showed inactive.
Silencing of unk [DRSC17093] resulted in: inactive.
CG3907 [DRSC04432] gave inactive.
Knock-down of Helz [DRSC11072] came out at: inactive.
Silencing of mtSSB [DRSC17005] came out at: inactive.
For glec [DRSC16958], the values are inactive.
Against CG2017 [DRSC12293], the entry reads inactive.
Against pes [DRSC03033], the values are inactive.
Against Ptip [DRSC10660], the values are inactive.
With knock-down of Ptip [DRSC11048], the screen gave inactive.

Individual results from above.
For “Outcome”, CG10462 [DRSC02058] has inactive
CG2017 [DRSC12293], Outcome = inactive
CG3907 [DRSC04432], Outcome → inactive
For “Outcome”, Fatp2 [DRSC04178] shows inactive
Value for Nepl8 [DRSC02759] under “Outcome”: inactive
Value for CG32606 (retired record) [DRSC19001] under “Outcome”: inactive
